Experimental data taken from the supplement of paper PMC10735217.
This is one part of the list. This data set is noisy: repeats of one test often differ as much as different tests do.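 In a drug-repurposing library screen, luminescence reads luciferase driven by eight TEAD-binding elements, stably integrated into human kidney-derived cells. Compounds scoring over five robust Z scores above the plate mean are called hits.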

System: HEK293A TEAD-LUC reporter
Experiment: TEAD-luciferase reporter activity (YAP activation), robust Z score vs plate; higher = stronger YAP/TEAD activation
Settings: 24 h

Compound	TEAD-luciferase reporter activity (compound concentration: 200 nM)	TEAD-luciferase reporter activity (compound concentration: 2 uM)	TEAD-luciferase reporter activity (compound concentration: 10 uM)
COc1cc2c(Nc3ccc(NC(=O)c4ccccc4)cc3)ncnc2cc1OCCCN1CCOCC1	inactive: 0.353	inactive: -0.923	inactive: 2.05
CCN(CC)CCN1C(=O)c2c(c3c4cccc(Cl)c4n([C@@H]4O[C@H](CO)[C@@H](OC)[C@H](O)[C@H]4O)c3c3[nH]c4c(Cl)cccc4c23)C1=O [Becatecarin]	inactive: -0.0296	inactive: -1.14	inactive: -1.09
CC1(C)CC(NC(=O)C(=O)Nc2ccc(Cl)cc2)CC(C)(C)N1	inactive: 0.0138	inactive: 1.41	inactive: -1.82
CCC(=O)OC(CC)(c1ccccc1)C1CCN(C)C1 (stereo unspecified)	inactive: 0.344	inactive: -0.238	inactive: 2.97
CCCCC[C@H](O)/C=C/[C@H]1[C@H](O)CC(=O)[C@@H]1CCCCCCC(=O)O [Prostaglandin E1]	inactive: -0.655	–	inactive: 2.2
CCCCC[C@H](O)/C=C/[C@H]1[C@H](O)CC(=O)[C@@H]1CCCCCCC(=O)O [lipo-alprostadil]	–	inactive: -0.655	–
O=C(NC1CCCCCC1)C1CCN(c2ccnc(C(F)(F)F)n2)CC1	inactive: -1.55	inactive: -0.0478	inactive: -1.8
C[C@]1(C(=O)N(CCCC(=O)O)Cc2cccc(Cl)c2)CCN1C(=O)c1csc2ccccc12	inactive: -0.964	inactive: -0.647	inactive: 1.63
Cc1ccc(-n2c(COc3ccc(Cl)c(C)c3)n[nH]c2=O)cc1	inactive: -1.64	inactive: -1.17	inactive: -0.866
CCC(=O)O[C@@H]1CC(=O)O[C@H](C)C/C=C/C=C/[C@H](O)[C@H](C)C[C@H](CC=O)[C@H](O[C@@H]2O[C@H](C)[C@@H](O[C@H]3C[C@@](C)(O)[C@@H](OC(=O)CC)[C@H](C)O3)[C@H](N(C)C)[C@H]2O)[C@H]1OC [Midecamycin]	inactive: -1.33	inactive: 0.109	inactive: 1.72
Nc1nc(CC(=O)Nc2ccc(CCNC[C@H](O)c3ccccc3)cc2)cs1 [Mirabegron]	inactive: -2.81	inactive: -1.12	inactive: -1.37
NC(=O)NC(c1ccccc1)c1cccc(Cl)c1 (stereo unspecified) [meta-Chlorobenzhydryl urea]	inactive: -0.875	inactive: -1.26	inactive: -1.11
COc1cc2nc(N3CCN(C(=O)CC(C)O)CC3)nc(N)c2cc1OC (stereo unspecified)	inactive: -1.67	inactive: -0.918	inactive: 1.52
CC(=O)OCC(COC(C)=O)OC(C)=O [Triacetin]	inactive: 4.11	inactive: -1.19	inactive: 0.599
Cc1cc2c(cc1C)C(=O)c1[nH]nnc1C2=O	inactive: -1.35	inactive: -0.801	inactive: -2
CC(C)(CO)NCC(=O)N1C[C@@H](F)C[C@H]1C#N	inactive: -1.4	inactive: 0.556	inactive: 2.13
Cc1ccc(N2CCc3ncnc(NC(C)c4cnc(C)nc4)c3C2)nc1 (stereo unspecified)	inactive: 0.249	inactive: -0.746	inactive: 1.89
CN(C)CC(=O)N1CCC(c2ccc(NC(=O)c3nc(C#N)c[nH]3)c(C3=CCCCC3)c2)CC1	inactive: -0.984	inactive: 0.359	inactive: 2.79
CC(=O)NCC(=O)N[C@@H](C)C(=O)N[C@@H](CCC(N)=O)C(=O)N[C@@H](Cc1ccccc1)C(=O)N[C@@H](CO)C(=O)N[C@@H](CCCCN)C(=O)N[C@H](C(=O)N[C@@H](C)C(=O)N[C@@H](C)C(=O)N[C@@H](CCCCN)C(=O)O)[C@@H](C)O	inactive: 0.257	inactive: 0.817	inactive: 1.38
O=c1c(O)c(-c2ccc(O)c(O)c2)oc2cc(O)cc(O)c12	inactive: 0.254	inactive: 0.458	inactive: -0.647
COc1ccccc1NS(=O)(=O)/C=C/c1ccccc1	inactive: 0.174	inactive: 0.0502	inactive: -1.46
CC(C)/N=c1\cc2n(-c3ccc(Cl)cc3)c3ccccc3nc-2cc1Nc1ccc(Cl)cc1	inactive: -0.973	–	inactive: -1.22
CC(C)/N=c1\cc2n(-c3ccc(Cl)cc3)c3ccccc3nc-2cc1Nc1ccc(Cl)cc1 [Clofazimine]	–	inactive: 0.644	–
CCOCCN(Cc1ccc(CN(CCOCC)C(=O)C(Cl)Cl)cc1)C(=O)C(Cl)Cl	inactive: -0.879	inactive: -1.31	inactive: 1.23
C[C@@H]1[C@H](O)[C@@H](C)/C=C/C=C/C=C/C=C/C=C/C=C/C=C/[C@H](O[C@@H]2O[C@H](C)[C@@H](O)[C@H](N)[C@@H]2O)C[C@@H]2O[C@](O)(C[C@@H](O)C[C@@H](O)[C@H](O)CC[C@@H](O)C[C@@H](O)CC(=O)O[C@H]1C)C[C@H](O)[C@H]2C(=O)O	–	inactive: 1.61	–
C[C@@H]1[C@H](O)[C@@H](C)/C=C/C=C/C=C/C=C/C=C/C=C/C=C/[C@H](O[C@@H]2O[C@H](C)[C@@H](O)[C@H](N)[C@@H]2O)C[C@@H]2O[C@](O)(C[C@@H](O)C[C@@H](O)[C@H](O)CC[C@@H](O)C[C@@H](O)CC(=O)O[C@H]1C)C[C@H](O)[C@H]2C(=O)O [Amphotericin B]	inactive: 1.48	–	inactive: -1.57
COc1ccc(S(=O)(=O)Nc2cccc3c2Nc2ccc(F)cc2CN3)cc1	inactive: -0.709	inactive: 0.909	inactive: 1.27
CCOC(=O)C1=C[C@@H](OC(CC)CC)[C@H](NC(C)=O)[C@@H](N)C1 [oseltamivir phosphate (tablet)]	inactive: -1.05	inactive: 1.95	inactive: -1.14
COc1cccc([C@H](Oc2ccc3c(cnn3-c3ccc(F)cc3)c2)[C@H](C)NC(=O)C(F)(F)F)c1	inactive: 0.686	inactive: 1.1	inactive: 2.03
CCN(CC)CCn1c2c(c3ccc(OC)cc31)CCN1C[C@H]3C[C@@H](OC(=O)c4cc(OC)c(OC)c(OC)c4)[C@H](OC)[C@@H](C(=O)OC)[C@H]3C[C@H]21	inactive: -0.683	inactive: -0.0153	inactive: 0.407

Whole records, quoted from the list. Values in the order: TEAD-luciferase reporter activity (compound concentration: 200 nM)	TEAD-luciferase reporter activity (compound concentration: 2 uM)	TEAD-luciferase reporter activity (compound concentration: 10 uM)
CCOCCN(Cc1ccc(CN(CCOCC)C(=O)C(Cl)Cl)cc1)C(=O)C(Cl)Cl in the list: inactive: -0.879	inactive: -1.31	inactive: 1.23
CC1(C)CC(NC(=O)C(=O)Nc2ccc(Cl)cc2)CC(C)(C)N1 in the list: inactive: 0.0138	inactive: 1.41	inactive: -1.82
